The results in this text go back to PMC3646808, “Aggregate-Reactivation Activity of the Molecular Chaperone ClpB from Ehrlichia chaffeensis” (PLoS ONE, 2013).

Amino acid sequences for entries named in this document (tags omitted).
UniProt P63284: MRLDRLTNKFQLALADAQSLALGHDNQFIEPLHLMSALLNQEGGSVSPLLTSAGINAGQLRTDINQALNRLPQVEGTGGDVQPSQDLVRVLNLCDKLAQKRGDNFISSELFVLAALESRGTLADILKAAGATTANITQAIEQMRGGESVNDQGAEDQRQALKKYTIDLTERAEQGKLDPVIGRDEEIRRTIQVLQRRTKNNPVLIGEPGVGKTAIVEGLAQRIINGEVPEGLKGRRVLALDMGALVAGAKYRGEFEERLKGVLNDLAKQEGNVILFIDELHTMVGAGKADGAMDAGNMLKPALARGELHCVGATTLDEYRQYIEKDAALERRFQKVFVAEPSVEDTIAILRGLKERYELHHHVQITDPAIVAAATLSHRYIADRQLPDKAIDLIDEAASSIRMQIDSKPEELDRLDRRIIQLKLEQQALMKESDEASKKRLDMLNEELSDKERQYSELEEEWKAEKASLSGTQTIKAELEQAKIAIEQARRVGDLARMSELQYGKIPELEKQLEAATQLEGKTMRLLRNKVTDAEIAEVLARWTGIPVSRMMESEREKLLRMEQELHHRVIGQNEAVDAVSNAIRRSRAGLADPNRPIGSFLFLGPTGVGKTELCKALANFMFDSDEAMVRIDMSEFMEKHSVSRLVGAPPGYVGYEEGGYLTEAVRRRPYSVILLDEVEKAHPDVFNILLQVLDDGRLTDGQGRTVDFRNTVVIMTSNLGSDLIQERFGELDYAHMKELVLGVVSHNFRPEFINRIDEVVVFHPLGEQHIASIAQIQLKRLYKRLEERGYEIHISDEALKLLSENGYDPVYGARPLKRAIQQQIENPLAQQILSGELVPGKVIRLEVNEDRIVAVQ

Results are given in words; binding and its absence hold for the method and conditions named. Some entries that bind do so weakly or less than the wild type. Sequences can lack the tags named with a protein.

Assay [1] concerns the target T1, aggregated glucose-6-phosphate dehydrogenase from Leuconostoc mesenteroides (Leuconostoc mesenteroides) (UniProt P11411).
T1 sequence: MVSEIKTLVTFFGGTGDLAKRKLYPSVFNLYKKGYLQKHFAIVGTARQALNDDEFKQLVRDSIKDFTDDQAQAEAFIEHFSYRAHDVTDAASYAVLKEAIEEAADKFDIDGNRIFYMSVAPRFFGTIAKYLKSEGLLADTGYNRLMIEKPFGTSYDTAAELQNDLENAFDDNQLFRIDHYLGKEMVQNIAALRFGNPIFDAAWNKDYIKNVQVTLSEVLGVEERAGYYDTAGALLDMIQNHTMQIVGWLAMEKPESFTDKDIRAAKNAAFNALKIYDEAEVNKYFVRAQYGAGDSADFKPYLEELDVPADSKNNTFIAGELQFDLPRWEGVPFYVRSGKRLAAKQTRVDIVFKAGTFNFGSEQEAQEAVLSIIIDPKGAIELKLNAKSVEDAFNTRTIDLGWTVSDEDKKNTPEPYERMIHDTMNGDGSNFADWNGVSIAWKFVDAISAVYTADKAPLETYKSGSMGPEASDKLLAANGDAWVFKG
Put plainly: retention with aggregates on a 0.1-µm filter, SDS-PAGE; aggregated G6PDH (16 µM diluted 10-fold) with 1.5 µM ClpB and 6 mM ATPγS in refolding buffer 1, 30°C, 20 min; filter-retained fraction on SDS-PAGE with Coomassie stain; both purified.

Assay [2] has as its target T1, aggregated glucose-6-phosphate dehydrogenase from Leuconostoc mesenteroides (Leuconostoc mesenteroides). As to the kind of experiment: retention with aggregates on a 0.1-µm filter, SDS-PAGE; aggregated G6PDH (16 µM diluted 10-fold) with 1.5 µM ClpB and 6 mM AMPPNP in refolding buffer 1, 30°C, 20 min; filter-retained fraction on SDS-PAGE with Coomassie stain; both purified.

Consider “ClpB from Escherichia coli (from UniProt P63284 1-857)”, for which the results for the binding result in assay [1] and in assay [2] were “binds” and “no binding (condition: with 6 mM AMPPNP)”, respectively.
